Data from article PMC3633926.

Amino acid sequences for entries named in this document (tags omitted).
UniProt P43694, whole entry T280M: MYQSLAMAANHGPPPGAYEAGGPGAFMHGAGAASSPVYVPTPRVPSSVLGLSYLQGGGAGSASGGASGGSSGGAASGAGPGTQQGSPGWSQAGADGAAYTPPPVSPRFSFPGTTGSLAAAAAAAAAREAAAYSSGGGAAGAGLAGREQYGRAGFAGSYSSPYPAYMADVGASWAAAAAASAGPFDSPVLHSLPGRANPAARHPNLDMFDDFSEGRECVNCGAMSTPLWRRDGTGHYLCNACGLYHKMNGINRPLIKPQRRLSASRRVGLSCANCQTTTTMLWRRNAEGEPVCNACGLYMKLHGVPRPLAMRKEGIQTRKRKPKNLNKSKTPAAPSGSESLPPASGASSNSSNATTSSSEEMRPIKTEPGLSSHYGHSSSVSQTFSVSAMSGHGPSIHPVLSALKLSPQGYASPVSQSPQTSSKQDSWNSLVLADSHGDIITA
UniProt P43694, whole entry A74D: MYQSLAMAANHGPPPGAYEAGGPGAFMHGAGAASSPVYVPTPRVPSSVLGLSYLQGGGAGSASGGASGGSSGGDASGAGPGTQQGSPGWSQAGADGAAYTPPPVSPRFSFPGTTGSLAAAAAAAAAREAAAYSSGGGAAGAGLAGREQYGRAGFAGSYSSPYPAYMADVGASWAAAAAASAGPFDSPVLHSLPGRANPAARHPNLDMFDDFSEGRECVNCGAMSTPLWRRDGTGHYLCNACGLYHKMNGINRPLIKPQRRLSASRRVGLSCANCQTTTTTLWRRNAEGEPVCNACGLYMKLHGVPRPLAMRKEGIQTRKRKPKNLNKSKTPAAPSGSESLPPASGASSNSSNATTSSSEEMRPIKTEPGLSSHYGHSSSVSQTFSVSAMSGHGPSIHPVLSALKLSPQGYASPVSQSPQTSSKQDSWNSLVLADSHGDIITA
UniProt P43694, whole entry G150W: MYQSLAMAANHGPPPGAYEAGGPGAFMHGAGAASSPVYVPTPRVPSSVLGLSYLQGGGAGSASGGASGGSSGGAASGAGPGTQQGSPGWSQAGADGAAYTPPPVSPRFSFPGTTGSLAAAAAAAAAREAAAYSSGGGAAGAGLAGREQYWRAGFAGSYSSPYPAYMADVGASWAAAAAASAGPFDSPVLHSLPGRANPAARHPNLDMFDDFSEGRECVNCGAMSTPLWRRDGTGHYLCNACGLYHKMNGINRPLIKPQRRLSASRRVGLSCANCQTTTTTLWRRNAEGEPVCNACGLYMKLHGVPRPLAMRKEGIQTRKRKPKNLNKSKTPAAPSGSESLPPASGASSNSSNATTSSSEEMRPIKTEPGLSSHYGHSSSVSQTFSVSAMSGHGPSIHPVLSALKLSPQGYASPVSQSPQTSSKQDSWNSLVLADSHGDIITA

How the values were obtained:
Assay in all cases: EMSA
Conditions in all cases: poly(dI-dC); LightShift kit 1x binding buffer, 1 ug poly(dI-dC), 2 ul nuclear extract, 1 pmol biotin probe, 20 ul, 20 min at room temperature; 6% native PAGE, 0.5x TBE; protein in a lysate after overexpression; residues 1-442; protein details: Myc; label: biotin (cold as competitor)
[1] = molecular target: GATA4 T280M (Homo sapiens) (UniProt P43694)
[2] = molecular target: GATA4 A74D (Homo sapiens) (UniProt P43694)
[3] = molecular target: GATA4 G150W (Homo sapiens) (UniProt P43694)

Measured: binding result

GCAGTTAACTGATAATGACACTGTG (double strand) [dHAND GATA element]
binds more weakly: [1] | [2] | [3]

Construct, isoform or probe ends are uncertain for at least one entry. At least one result comes from cells or an extract, where the contact may be indirect. The comparison behind a weaker result is the experiment's own reference, which may not be listed here.
